This note sets out measurements from publication PMC6811854 (ACS Omega, 2019).

Each structure is given as a SMILES string.

In the assay the test system is Neuro2A cells. The assay can be described thus: Neurite outgrowth assay. Format: cell-based, mouse. The settings on record: differentiated Neuro2A cells, 48 h post-treatment, 10, 1, 0.1, 0.01 μM.

As to `O=C(CCCCCCC(=O)Nc1ccccc1)NO` [vorinostat, suberoylanilide hydroxamic acid, reference compound], the “neurite outgrowth promotion compared to no inhibitor (vehicle)” value is recorded as “significantly more neurite outgrowth promotion”.
